The list does not hold the whole screen: it is rich in T/C values a quarter to a half above the control, in often repeated tests (any T/C) and in doses without a T/C. Other doses and runs of a compound stand elsewhere. T/C is the treated group as % of the vehicle group. Schedule codes are those of the source, taken here to give the interval after Q, in days (D) or hours (H), and the number of doses after X. Some T/C values are followed by the survivors on the day toxicity was checked, most often the fifth; where none is given, no animal had died by that day. Some doses have a count of surviving animals in place of a T/C: the source holds a T/C of zero for them, seemingly a mark for toxic or unscored doses. Counts of survivors are from the toxicity check (mostly the fifth day) where no day follows; animals may have died later. Some entries hold several experiments; the values are given in rising order.
Tested on: BDF1 mice, colon carcinoma 38 sc, T/C %
Assay: NCI In Vivo Anticancer Drug Screen. Data for tumor model Colon Carcinoma 38 (subcutaneous) in B6D2F1 (BDF1) mice
Settings: for T/C: evaluated on day 20
Outline: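 Mice with transplanted tumors are treated with compound or vehicle. Survival or tumor size is then measured in both groups. The ratio of treated to control gives the reported figure.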

[1] = T/C endpoint: median tumor weight (est.), dose: 100.0 mg/kg/injection, schedule: Q07DX002 (ip), vehicle: saline, higher T/C = larger tumour
[2] = T/C endpoint: median tumor weight (est.), dose: 200.0 mg/kg/injection, schedule: Q07DX002 (ip), vehicle: saline, higher T/C = larger tumour
[3] = T/C endpoint: median tumor weight (est.), dose: 400.0 mg/kg/injection, schedule: Q07DX002 (ip), vehicle: saline, higher T/C = larger tumour
[4] = T/C endpoint: median tumor weight (est.), dose: 25.0 mg/kg/injection, schedule: Q07DX002 (ip), vehicle: saline, higher T/C = larger tumour

Compound: Nc1ncnc2c1ncn2C1OC(COS(N)(=O)=O)C(O)C1O (centres undefined)
- survivor count (T/C endpoint: median survival time, dose: 1.0 mg/kg/injection, schedule: Q02DX004 (sc), vehicle: saline, higher T/C = longer survival): 0 of 3 on day 22
- survivor count (T/C endpoint: median survival time, dose: 2.0 mg/kg/injection, schedule: Q02DX004 (sc), vehicle: saline, higher T/C = longer survival): 0 of 3 on day 22
- survivor count (T/C endpoint: median survival time, dose: 4.0 mg/kg/injection, schedule: Q02DX004 (sc), vehicle: saline, higher T/C = longer survival): 0 of 3 on day 22

Compound: C=CCOCC1CO1 (centres undefined)
- T/C (T/C endpoint: median tumor weight (est.), dose: 12.5 mg/kg/injection, schedule: Q07DX002 (ip), vehicle: saline, higher T/C = larger tumour): 125 % of control
- T/C [1]: 130 % of control
- T/C [2]: 128 % of control [8 of 10 alive on day 20]
- survivor count [3]: 2 of 10 on day 20 and 6 of 10 on day 20

Compound: CN(C)S(=O)(=O)CCNC(=O)N(CCCl)N=O
- survivor count (T/C endpoint: median tumor weight (est.), dose: 30.0 mg/kg/injection, schedule: Q07DX002 (oral), vehicle: saline with Tween-80, higher T/C = larger tumour): 2 of 10 on day 20
- survivor count (T/C endpoint: median tumor weight (est.), dose: 41.67 mg/kg/injection, schedule: Q07DX002 (oral), vehicle: saline, higher T/C = larger tumour): 4 of 10 on day 20

Compound: COc1cc(C)c(C2NC(=O)c3ccccc3N2)cc1C (centres undefined)
- T/C (T/C endpoint: median tumor weight (est.), dose: 200.0 mg/kg/injection, schedule: Q07DX002 (ip), vehicle: Klucel (hydroxypropylcellulose) (HPC), higher T/C = larger tumour): 146 % of control

Compound: O=[N+]([O-])c1nccn1CC(O)CO (centres undefined)
- T/C [4]: 127 % of control
- T/C (T/C endpoint: median tumor weight (est.), dose: 50.0 mg/kg/injection, schedule: Q07DX002 (ip), vehicle: saline, higher T/C = larger tumour): 129 % of control
- T/C [2]: 136 % of control
- T/C [3]: 149 % of control [9 of 10 alive on day 20]

Compound: O=C(NO)c1ccccc1
- T/C (T/C endpoint: median tumor weight (est.), dose: 50.0 mg/kg/injection, schedule: Q07DX002 (ip), vehicle: suspension in saline, higher T/C = larger tumour): 135 % of control
- T/C (T/C endpoint: median tumor weight (est.), dose: 100.0 mg/kg/injection, schedule: Q07DX002 (ip), vehicle: suspension in saline, higher T/C = larger tumour): 148 % of control

Compound: NC1CCCCC1N.O=C1C=CC(=C(c2ccc(O)cc2)c2ccccc2S(=O)(=O)[O-])C=C1.O=[N+]([O-])[O-].[Pt+4]
- survivor count [4]: 0 of 10 on day 20 and 1 of 10 on day 20

Compound: COc1nc(=O)n(C2C=CC(=O)O2)cc1F (centres undefined)
- T/C [1]: 135 % of control [9 of 10 alive on day 20]
- T/C [2]: 125 % of control [9 of 10 alive on day 20]

Compound: CCOC(OCC)C(=O)OCC(=O)[C@]1(O)Cc2c(O)c3c(c(O)c2[C@@H](OC2CC(N)C(O)C(C)O2)C1)C(=O)c1c(OC)cccc1C3=O (some centres undefined)
- T/C (T/C endpoint: median tumor weight (est.), dose: 1.0 mg/kg/injection, schedule: Q07DX002 (ip), vehicle: water, higher T/C = larger tumour): 140 % of control
- T/C (T/C endpoint: median tumor weight (est.), dose: 8.0 mg/kg/injection, schedule: Q07DX002 (ip), vehicle: water, higher T/C = larger tumour): 133 % of control
- survivor count (T/C endpoint: median tumor weight (est.), dose: 16.0 mg/kg/injection, schedule: Q07DX002 (ip), vehicle: water, higher T/C = larger tumour): 2 of 10 on day 20
- survivor count (T/C endpoint: median tumor weight (est.), dose: 32.0 mg/kg/injection, schedule: Q07DX002 (ip), vehicle: water, higher T/C = larger tumour): 0 of 10 on day 20

Compound: CC(C)=CCC/C(C)=C/COc1ccc(/C=C2/C(=O)N(O)[C@@H](C)C(=O)N2O)cc1
- T/C [2]: 132 % of control [9 of 10 alive]

Compound: Cc1nc(N)nc(N)c1-c1ccc(Cl)c(Cl)c1
- T/C (T/C endpoint: median tumor weight (est.), dose: 1.25 mg/kg/injection, schedule: Q07DX002 (ip), vehicle: saline, higher T/C = larger tumour): 132 % of control
- T/C (T/C endpoint: median tumor weight (est.), dose: 5.0 mg/kg/injection, schedule: Q07DX002 (ip), vehicle: saline, higher T/C = larger tumour): 139 % of control
- T/C (T/C endpoint: median tumor weight (est.), dose: 5.0 mg/kg/injection, schedule: Q07DX002 (ip), vehicle: suspension in saline, higher T/C = larger tumour): 138 % of control
- survivor count (T/C endpoint: median tumor weight (est.), dose: 40.0 mg/kg/injection, schedule: Q07DX002 (ip), vehicle: saline, higher T/C = larger tumour): 5 of 10 on day 20
- survivor count (T/C endpoint: median tumor weight (est.), dose: 80.0 mg/kg/injection, schedule: Q07DX002 (ip), vehicle: suspension in saline, higher T/C = larger tumour): 2 of 10 on day 20
